In this assay the target is T1, receptor-interacting serine/threonine-protein kinase 1 (RIPK1), endogenous in MEFs (mouse (endogenous in MEFs)), Q60855.
T1 chain: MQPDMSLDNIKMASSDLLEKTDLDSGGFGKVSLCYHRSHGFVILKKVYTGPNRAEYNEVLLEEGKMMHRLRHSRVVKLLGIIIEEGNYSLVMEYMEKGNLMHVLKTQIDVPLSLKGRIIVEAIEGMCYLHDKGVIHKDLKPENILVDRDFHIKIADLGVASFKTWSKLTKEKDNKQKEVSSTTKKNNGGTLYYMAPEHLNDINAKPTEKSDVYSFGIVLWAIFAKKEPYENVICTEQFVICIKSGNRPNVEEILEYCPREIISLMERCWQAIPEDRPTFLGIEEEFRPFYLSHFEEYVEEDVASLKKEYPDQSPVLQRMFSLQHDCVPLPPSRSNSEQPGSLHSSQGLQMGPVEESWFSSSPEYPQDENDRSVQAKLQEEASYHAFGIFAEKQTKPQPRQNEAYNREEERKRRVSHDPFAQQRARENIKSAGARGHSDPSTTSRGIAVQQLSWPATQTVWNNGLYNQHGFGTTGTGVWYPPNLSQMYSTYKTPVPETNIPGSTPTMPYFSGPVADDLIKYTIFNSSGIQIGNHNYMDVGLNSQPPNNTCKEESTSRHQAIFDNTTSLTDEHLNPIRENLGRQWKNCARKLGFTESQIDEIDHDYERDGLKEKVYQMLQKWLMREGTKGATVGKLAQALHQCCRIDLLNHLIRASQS
Nature of the assay: co-IP; SPOP+/+ and SPOP-/- MEFs pretreated with Nec-1s or DMSO for 1 hour, then DMSO, TSZ or TSZ+Nec-1s for 4 hours; necrosome immunoprecipitated using RIPK1 antibody, immunoblot. As to conditions: remark: other sources report otherwise.

These are yes or no findings as the source states them, for the method shown. In cells and extracts the contact can be indirect. Some entries that bind do so weakly or less than the wild type.

B1: receptor-interacting serine/threonine-protein kinase 3 (RIPK3), endogenous in MEFs, Q9QZL0 1-486 (protein)
chain: MSSVKLWPTGASAVPLVSREELKKLEFVGKGGFGVVFRAHHRTWNHDVAVKIVNSKKISWEVKAMVNLRNENVLLLLGVTEDLQWDFVSGQALVTRFMENGSLAGLLQPECPRPWPLLCRLLQEVVLGMCYLHSLNPPLLHRDLKPSNILLDPELHAKLADFGLSTFQGGSQSGSGSGSGSRDSGGTLAYLDPELLFDVNLKASKASDVYSFGILVWAVLAGREAELVDKTSLIRETVCDRQSRPPLTELPPGSPETPGLEKLKELMIHCWGSQSENRPSFQDCEPKTNEVYNLVKDKVDAAVSEVKHYLSQHRSSGRNLSAREPSQRGTEMDCPRETMVSKMLDRLHLEEPSGPVPGKCPERQAQDTSVGPATPARTSSDPVAGTPQIPHTLPFRGTTPGPVFTETPGPHPQRNQGDGRHGTPWYPWTPPNPMTGPPALVFNNCSEVQIGNYNSLVAPPRTTASSSAKYDQAQFGRGRGWQPFHK
As for B1, the binding result was “binds”.

(Values after publication PMC12581659.)
